Measured data: PubChem BioAssay AID504786 (Drosophila RNAi Screening Center, 2011)
Test: 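Fly genes required for HIF-dependent transcription when hypoxia is mimicked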 (primary screen). Cells: Drosophila S2 cells with a stable HIF luciferase reporter. Reagents: long dsRNA against Drosophila genes, about 0.2 µg dsRNA per well of a 384-well plate. Timing: three days of knock-down, then 20 h of DFO before reading. Challenge: desferrioxamine (DFO) at 100 µM, an iron chelator that mimics hypoxia, for 20 h. Detection: 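HIF reporter luminescence in cells given 100 µM DFO for 20 h, using the mouse ldh-a hypoxia-response element, scored as per-plate z-scores; higher means greater loss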. Scale: z-score: higher = stronger loss of HIF reporter signal.
The deposit covers about 21,000 reagents; shown is an unselected part of those with a known target gene and a result. 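Primary screen; positive scores mean lost reporter signal, so the sign may be inverted from the usual convention.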 A plus sign joins genes that one reagent is predicted to hit.

gene	dsRNA	z-score, replicate 1	z-score, replicate 2	z-score, replicate 3	z-score, replicate 4
FipoQ	DRSC15413	1.2	1.5		
Acsx2	DRSC14308	-1.1	-0.8		
HmgD	DRSC04619	-0.2	0		
CG2200	DRSC19840	-0.3	-1.1		
CG31253 + CG31131	DRSC13839	0	-0.2		
CG14220	DRSC19577	-0.3	-0.7		
CG4896	DRSC00671	-0.3	-0.3		
POLDIP2	DRSC12194	-0.3	-0.4		
C3G	DRSC17745	-0.2	0		
C3G	DRSC17929	-0.2	-0.4		
Sin1	DRSC05965	-0.3	0.1		
CG10527	DRSC04078	-0.3	-0.8		
Srp68	DRSC10475	-0.6	-1.2		
CG16986	DRSC08502	-0.3	-0.3		
CG13116	DRSC02214	-0.4	-0.4	-0.9	-0.3
pns	DRSC08598	-0.2	-0.4		
Tsp42Eg	DRSC06112	-0.4	-0.3		
Lrrk	DRSC15816	-0.9	0	-0.6	-0.3
VhaAC39-2	DRSC15609	-0.5	0.4		
GCS2alpha	DRSC21036	-0.5	-0.7		
CG9010	DRSC07320	-0.3	1.6		
CG10077	DRSC09691	-0.2	0.3		
Galphai	DRSC11168	-0.4	0		
CG10494	DRSC04072	-0.2	-0.5		
CG6660	DRSC16087	-0.2	-0.6		
mRpS10	DRSC15557	0.5	0.6		
CG13947	DRSC00365	-0.2	0.3		
CG6282	DRSC10616	-0.2	-0.2		

In a second layout: 9 of the entries above.
gene,dsRNA,"z-score, replicate 1","z-score, replicate 2","z-score, replicate 3","z-score, replicate 4"
Lrrk,DRSC15816,-0.9,0,-0.6,-0.3
VhaAC39-2,DRSC15609,-0.5,0.4,,
GCS2alpha,DRSC21036,-0.5,-0.7,,
CG9010,DRSC07320,-0.3,1.6,,
CG10077,DRSC09691,-0.2,0.3,,
Galphai,DRSC11168,-0.4,0,,
CG10494,DRSC04072,-0.2,-0.5,,
CG6660,DRSC16087,-0.2,-0.6,,
mRpS10,DRSC15557,0.5,0.6,,

The listing continues:
gene	dsRNA	z-score, replicate 1	z-score, replicate 2	z-score, replicate 3	z-score, replicate 4
Gprk2	DRSC16682	-0.1	-0.5		
CG13723	DRSC10052	-0.2	-0.1		
SmydA-5	DRSC04867	-0.1	-0.3		
Cenp-C	DRSC14371	0.3	0.1		
AlaRS	DRSC01851	-0.1	-0.3		
CanA-14F	DRSC20211	0.6	0.5		
CG30098	DRSC05605	0.2	-0.2		
CG17834	DRSC02637	-0.5	-0.6		
Obp47b + CG7741	DRSC06330	-0.2	0.1		
CG6470	DRSC19994	-0.1	-0.5		
Claspin	DRSC08308	0.9	0		
Pgant35A	DRSC03557	-0.2	-0.6	-0.3	-0.4
osy	DRSC14903	-0.1	0.2		
osy	DRSC15979	-0.4	-0.5		
osy	DRSC15981	-0.3	0.4		
CG9147	DRSC03147	-0.2	-0.3		
slow	DRSC08589	-0.4	-0.4		
slow	DRSC08590	-0.3	-0.7		
Mnt	DRSC17894	0.3	0.1		
Mnt	DRSC18480	-0.4	-0.1		
CG13151	DRSC06276	-0.2	-0.5		
Obsc	DRSC04301	-1.5	-0.2		
Obsc	DRSC04302	-0.2	-0.3		
Obsc	DRSC04303	-0.4	-0.5		
Obsc	DRSC04430	-0.1	-0.3		
AMPKalpha	DRSC18714	-0.6	-0.3		
CG4098	DRSC10399	-0.3	-0.4		
Atg8a	DRSC18024	-0.3	-0.6		
Pi4KIIalpha	DRSC12322	-0.3	-0.4		
Pi4KIIalpha	DRSC12323	-0.3	0		
Nepl4	DRSC03239	-0.3	-0.1		
CG12310	DRSC09878	-0.1	-0.1		
loj	DRSC09791	-0.3	-0.2		
HP6	DRSC00471	-0.3	-0.3		
ND-51L1	DRSC06072	-0.3	-0.2		
Ance-3	DRSC02648	-0.3	-0.5		
Ance-3	DRSC02649	-0.3	-0.3		
Usp16-45	DRSC18352	-0.3	-0.4		
CG34247	DRSC09933	-0.2	-0.6		
CG17032	DRSC10241	-0.2	0.3		
CG5861	DRSC02907	-0.1	-0.2		
Gr39b	DRSC01848	-0.1	-0.2		
CG15822	DRSC08482	-0.1	-0.5		
CG15822	DRSC08483	-0.5	0.9		
thw	DRSC12552	0	0		
alpha-PheRS	DRSC18224	0.1	1.3		
CG15635	DRSC00470	-0.3	-0.2	-0.6	-0.3
sp3	DRSC16354	0.3	-0.6		
red	DRSC14477	1.3	2		
CG1690	DRSC06636	0.1	0.1		
CG33181	DRSC17971	-0.3	-0.1		
CG30274	DRSC04171	-0.4	0.1		
Vha16-4 + CG15614	DRSC07321	-0.3	-0.3		
Fer2LCH	DRSC16672	-0.5	-0.5		
LManII	DRSC01986	-0.3	-0.6		
